The values below come from PubChem BioAssay AID1487 (National Center for Advancing Translational Sciences (NCATS), 2009).

The nature of this test: qHTS Assay for Modulators of Lamin A Splicing. The settings on record: HeLa LMNA splicing GFP/RFP minigene ratio, 48 h. In short, it runs like this: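 Read-out is the ratio of GFP to DsRed2 object intensity, acquired by 488 nm laser-scanning cytometry on HeLa lamin A-EGFP minigene reporter cells. Compound incubation 48 hrs at 37 °C in Opti-MEM with 2% FBS; DMSO 0.5% final.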
In general terms: In qHTS, concentration-response curves come from the screen itself.

Where [1] appears, read: measured here: RFP viability control channel.
Where [2] appears, read: measured here: GFP splicing reporter channel.

This is one part of the list. The main result of the screen is listed elsewhere. These columns were measured beside it and carry no call. Compounds called inactive in the main read-out are mostly missing here. Potencies come from curve fits of mixed quality, noted in brackets.

Usually AC50 stands for the concentration at which the activity in the assay is half-maximal. For `COc1ccc(/C=C/C(=O)Nc2ccc(-n3nncc3-c3ccccc3)cc2)cc1OC`, the half-maximal activity concentration (AC50) under setting [1] is 25.1 µM [rising, single point].

As for `O=c1cc(/C=C/c2cccs2)[nH]c2ccccc12`, under setting [1], the AC50 was 35.5 µM [rising, single point].

On to `Cc1cccc(-n2c(SCC(=O)Nc3ccc(C)c(C)c3)nc3n[nH]c(C)c3c2=N)c1`, for which the AC50 under setting [2] was 0.00316 µM [rising, full curve, poor fit].

In the case of `c1ccc(-c2cccc(-c3ccccn3)n2)nc1`, the AC50 under setting [1] was 5.62 µM [rising, single point].

As for `O=[N+]([O-])c1ccc(NC(=S)NCCc2ccccc2)cc1`, the AC50 by setting is: under setting [2], 14.1 µM [rising, partial curve]; under setting [1], 31.6 µM [rising, single point].

On to `Cc1ccc(NC(=O)c2ccc(C)c(S(=O)(=O)N3CCCCCC3)c2)cc1`, for which the AC50 runs as follows: under setting [2], 35.5 µM [falling, single point]; under setting [1], 35.5 µM [falling, single point].

On to `COc1ccc2c(Cl)c(C(=O)NC3CCS(=O)(=O)C3)sc2c1` (stereo not drawn), for which the AC50 under setting [2] is 1.12 µM [rising, partial curve, poor fit].

As for `O=c1[nH]nc(Cc2ccc(Cl)cc2Cl)c2ccccc12`, the AC50 was 8.91 µM [rising, partial curve] under setting [2] and 14.1 µM [rising, partial curve] under setting [1].

Consider `O=C(CSc1nc2ccccc2n1CCc1ccccc1)NC1CC1`, for which the AC50 under setting [2] was 2 µM [falling, partial curve, poor fit].

Regarding `O=C(/C=C/c1ccc2c(c1)OCO2)Nc1ccc(Cl)cn1`, the AC50 is, setting by setting: under setting [2], 15.8 µM [rising, partial curve, poor fit]; under setting [1], 14.1 µM [rising, partial curve, poor fit].

Turning to `O=C1CCC(/C=C/c2ccccc2)=NN1Cc1ccccc1`, under setting [2], the AC50 was 22.4 µM [falling, partial curve].

Turning to `CCCCc1nn2c(=O)cc(COC(=O)CNC(=O)COc3ccc(C)cc3)nc2s1`, the AC50 under setting [2] was 0.0251 µM [falling, full curve, poor fit].

As to `CCS(=O)(=O)N1Cc2ccccc2CC1C(=O)Nc1ncc(C)s1` (stereo not drawn), the concentration at half-maximal activity (AC50) under setting [2] was 0.00501 µM [falling, full curve, poor fit].

As to `CCOc1ccc(NC(=O)c2c(NCc3cccs3)sc3c2CCC(C)C3)cc1` (stereo not drawn), the concentration at half-maximal activity (AC50) under setting [1] was 31.6 µM [rising, single point].

Turning to `COCCn1c(SCC(=O)N2CCc3ccccc3C2)nc2cc(Cl)ccc2c1=O`, the AC50 under setting [2] was 5.62 µM [rising, partial curve].

`Cc1cc(NC(=O)c2ccc(N3CCCC3)c([N+](=O)[O-])c2)no1`: the AC50 under setting [1] was 20 µM [rising, single point].

As to `CN(n1cnc2ccccc2c1=O)S(C)(=O)=O`, under setting [2], the AC50 was 0.112 µM [falling, full curve].

Take `COc1ccc(NC(=O)Nc2cc(C(=O)NCc3ccc(C)cc3)ccc2N2CCCC2)cc1`: the AC50 under setting [2] was 2.82 µM [rising, full curve] and the AC50 under setting [1] is 7.08 µM [rising, partial curve].

In the case of `CCC/C(O)=C1\C(=O)CC(C)(C)CC1=Nc1ccccc1O`, the AC50 is 35.5 µM [falling, partial curve, poor fit] under setting [2] and 35.5 µM [falling, partial curve] under setting [1].

As to `COc1ccccc1N(C(=O)c1cncc(Br)c1)c1nc(-c2ccc(C)cc2)cs1`, the AC50 is 11.2 µM [rising, partial curve] under setting [2] and 10 µM [rising, partial curve] under setting [1].

Turning to `O=C1CC(c2ccccc2)CN1C(=O)c1cccnc1` (stereo not drawn), under setting [1], the AC50 is 0.00562 µM [falling, full curve, poor fit].

As to `Cc1cccc(NC(=S)N(CCCN2CCOCC2)Cc2ccccn2)c1`, the AC50 under setting [1] is 0.178 µM [rising, full curve, poor fit].

Take `O=C(NCc1ccc(OC(F)(F)F)cc1)C1CC(c2c(Cl)cccc2Cl)=NO1` (stereo not drawn): the AC50 reads like this: under setting [2], 14.1 µM [rising, single point]; under setting [1], 17.8 µM [rising, single point].

In the case of `COC(=O)C1=C(N)Oc2cc(C)n(CCN3CCOCC3)c(=O)c2C1c1cccnc1` (stereo not drawn), the AC50 under setting [1] was 0.251 µM [falling, full curve].

On to `CN(C)S(=O)(=O)c1ccc(C(=O)Nc2nc(-c3cc4ccccc4o3)cs2)cc1`, for which the AC50 by setting is: under setting [2], 3.55 µM [rising, partial curve]; under setting [1], 2.82 µM [rising, full curve].

Consider `S=C(NCc1ccc(Cl)cc1)Nc1ccccc1`, for which the AC50 under setting [2] was 31.6 µM [rising, single point].

For `Cc1ccc(-n2ncc3c(=O)[nH]c(SCC(=O)N4CCOCC4)nc32)cc1`, the AC50 under setting [1] is 1.58 µM [rising, partial curve, poor fit].

As for `Cn1cccc1/C=N/NC(=O)c1cc(-c2cccs2)nc2ccccc12`, the concentration at half-maximal activity (AC50) by setting is: under setting [2], 35.5 µM [rising, single point]; under setting [1], 22.4 µM [rising, single point].

For the compound `CCCCCCN(C(=O)CCCCCN1C(=O)NC(c2ccc(-c3ccccc3)cc2)C(C(=O)OCc2ccccc2)=C1C)C(C)C(=O)NCCCC` (stereo not drawn), the AC50 under setting [1] is 14.1 µM [rising, partial curve].

As to `COc1ccc(N2CC(NC(=O)N3CCN(c4ccccc4)CC3)CC2=O)cc1` (stereo not drawn), the AC50 under setting [2] was 0.01 µM [rising, full curve, poor fit].

Consider `Cc1cc(Nc2cccc(Cl)c2)nc2ccc(NC(=O)COc3ccc(Cl)cc3)cc12`, for which the AC50 was 25.1 µM [falling, single point] under setting [2] and 25.1 µM [falling, single point] under setting [1].

With `CCCOC(=O)c1cccc(NC(=O)COc2ccc([N+](=O)[O-])cc2)c1`, under setting [1], the AC50 was 22.4 µM [rising, partial curve].

Turning to `CCc1cccc2c(N=O)c(O)[nH]c12`, the AC50 under setting [1] was 35.5 µM [rising, single point].

Consider `CCOC(=O)C1=C2SCCN2C(=O)C(C#N)C1(C)C` (stereo not drawn), for which the AC50 under setting [1] was 0.01 µM [falling, full curve, poor fit].

In the case of `CNC(=S)N(Cc1cccs1)Cc1cc2ccc(OC)cc2[nH]c1=O`, the AC50 under setting [2] was 22.4 µM [rising, single point] and the AC50 under setting [1] is 20 µM [rising, partial curve, poor fit].

On to `Cn1c(=O)c2[nH]c(-c3ccccc3Cl)c(O)c2n(C)c1=O`, for which the AC50 under setting [1] was 7.94 µM [falling, partial curve].
